Experimental data reported in article PMC10549227.
These are yes or no findings as the source states them, for the method shown. Some entries that bind do so weakly or less than the wild type. Sequences can lack the tags named with a protein.

Chains of the proteins cited; added tags and fusions are not shown. Lines headed by an entry give the natural chain unless they say otherwise; changes in a name come on top. A line that says so, or that is headed by a name, gives the form on record, which may keep a tag or linker.
human G-CSF (granulocyte colony-stimulating factor) (P09919-2, form named): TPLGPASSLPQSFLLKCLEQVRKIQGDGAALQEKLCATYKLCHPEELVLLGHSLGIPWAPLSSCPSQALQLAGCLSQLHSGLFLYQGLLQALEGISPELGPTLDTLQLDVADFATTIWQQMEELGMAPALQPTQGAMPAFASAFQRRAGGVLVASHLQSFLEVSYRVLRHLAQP

Molecular target: T1, Fc-chimera G-CSF receptor (UniProt Q99062)
T1 sequence: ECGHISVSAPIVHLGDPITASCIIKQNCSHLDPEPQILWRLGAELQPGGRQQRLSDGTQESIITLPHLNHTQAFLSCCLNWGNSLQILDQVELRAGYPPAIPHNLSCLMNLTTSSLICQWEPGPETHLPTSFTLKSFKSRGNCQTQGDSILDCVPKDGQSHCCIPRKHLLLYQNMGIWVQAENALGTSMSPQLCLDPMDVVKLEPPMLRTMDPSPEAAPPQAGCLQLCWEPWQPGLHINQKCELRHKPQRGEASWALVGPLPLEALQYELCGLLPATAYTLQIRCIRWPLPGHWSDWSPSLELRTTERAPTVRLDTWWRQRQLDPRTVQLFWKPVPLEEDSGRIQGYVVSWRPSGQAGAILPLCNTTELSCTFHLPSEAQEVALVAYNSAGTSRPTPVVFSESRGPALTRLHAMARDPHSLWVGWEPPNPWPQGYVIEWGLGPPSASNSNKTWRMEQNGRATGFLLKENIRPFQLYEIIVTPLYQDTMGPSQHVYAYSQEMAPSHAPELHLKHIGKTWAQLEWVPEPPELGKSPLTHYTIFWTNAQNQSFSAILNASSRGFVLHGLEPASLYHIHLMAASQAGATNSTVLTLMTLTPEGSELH
Experiment: SPR; Biacore T200; Protein A amine-coupled on CM5 chip, Fc-chimera G-CSF receptor captured via Protein A; G-CSF variants injected in single-cycle manner at increasing concentrations, 30 uL/min; running buffer 10 mM HEPES, 0.05% Tween20, 150 mM NaCl, pH 7.4; both purified

binding: binds
Substance: human G-CSF (granulocyte colony-stimulating factor) (from UniProt P09919-2 31-204) (ligand)
